Laboratory results taken from PubChem BioAssay (EPA / NIEHS).
This list was built around the results that the source calls inconclusive (neither active nor inactive); the mix of calls is not that of the screen. Where the call is inconclusive, the potency comes from a doubtful curve fit. Activity calls are given as the source filed them. The calls were made as follows: active = hit-call score of the fitted dose curve at least 0.9, where 1 is the maximum; inconclusive = response in the unintended direction; inactive = score below 0.9.

By UniProt entry, the sequences of proteins in these tests, tags left out. Where a name states a change or a piece, a line headed by the entry shows the natural chain unless it says otherwise.
UniProt P41235: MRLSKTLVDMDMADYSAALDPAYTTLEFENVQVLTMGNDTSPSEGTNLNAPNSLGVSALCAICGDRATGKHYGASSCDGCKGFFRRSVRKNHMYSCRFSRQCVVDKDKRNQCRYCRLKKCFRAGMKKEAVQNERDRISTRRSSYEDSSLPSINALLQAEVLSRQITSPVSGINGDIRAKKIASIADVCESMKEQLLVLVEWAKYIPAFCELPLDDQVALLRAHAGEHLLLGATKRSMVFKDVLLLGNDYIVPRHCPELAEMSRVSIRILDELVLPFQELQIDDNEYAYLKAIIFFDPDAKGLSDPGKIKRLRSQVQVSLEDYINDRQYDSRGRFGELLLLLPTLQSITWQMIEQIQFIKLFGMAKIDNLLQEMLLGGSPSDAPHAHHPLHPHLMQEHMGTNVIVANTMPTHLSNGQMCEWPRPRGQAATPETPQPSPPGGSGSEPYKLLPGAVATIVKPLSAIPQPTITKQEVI
UniProt P43354, whole entry, looked up: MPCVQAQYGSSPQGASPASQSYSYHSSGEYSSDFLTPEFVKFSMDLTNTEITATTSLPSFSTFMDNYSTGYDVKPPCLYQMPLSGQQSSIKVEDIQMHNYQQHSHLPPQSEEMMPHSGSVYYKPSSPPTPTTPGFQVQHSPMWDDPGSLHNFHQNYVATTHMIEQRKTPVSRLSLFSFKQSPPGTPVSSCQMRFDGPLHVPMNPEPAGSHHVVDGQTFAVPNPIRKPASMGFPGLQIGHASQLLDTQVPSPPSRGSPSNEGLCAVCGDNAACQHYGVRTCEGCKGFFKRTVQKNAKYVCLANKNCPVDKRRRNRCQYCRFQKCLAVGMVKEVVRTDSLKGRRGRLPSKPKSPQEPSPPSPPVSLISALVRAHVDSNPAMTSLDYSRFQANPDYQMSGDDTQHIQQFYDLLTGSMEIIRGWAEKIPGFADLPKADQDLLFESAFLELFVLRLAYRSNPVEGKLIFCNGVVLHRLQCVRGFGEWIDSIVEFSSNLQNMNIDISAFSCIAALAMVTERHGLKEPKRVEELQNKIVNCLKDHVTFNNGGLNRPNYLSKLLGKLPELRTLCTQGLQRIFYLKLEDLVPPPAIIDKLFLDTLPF

Target: Hepatocyte nuclear factor 4-alpha (Homo sapiens) (UniProt P41235)
Experiment: ATG_HNF4a_TRANS: Attagene TRANS-FACTORIAL HepG2 Assay for human Hepatocyte Nuclear Factor 4 alpha (HNF4a) (AID 2282982)
Settings: HepG2 HNF4a transactivation reporter, mRNA readout
In short: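 Endpoint reflects transcriptional activation of a GAL4-UAS reporter by an HNF4a-GAL4 chimera in transfected HepG2 cells, 24 h post-dosing. Fluorescence from RT-PCR products separated by capillary electrophoresis; DMSO baseline.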

Compound | AC50 | outcome
O=C=NC1CCC(CC2CCC(N=C=O)CC2)CC1 (configuration not stated) | inconclusive: 24.4 µM | 
CCCCCCCCCC(=O)OCC | inconclusive: 100 µM | 
COc1ccc(CCN2CCC(Nc3nc4ccccc4n3Cc3ccc(F)cc3)CC2)cc1 | inconclusive: 0.697 µM | 
CSc1ccc(O)cc1C | inconclusive: 100 µM | 
CC(=O)c1ccccc1 |  | inactive
C=C1CC/C=C(\C)CC[C@@H]2[C@@H]1CC2(C)C | inconclusive: 100 µM | 
Cc1cccc(Nc2ccccc2C(=O)O)c1C |  | inactive
NC(N)=NC(=O)c1nc(Cl)c(N)nc1N | inconclusive: 100 µM | 
O=CC(F)(F)C(F)(F)C(F)(F)C(F)F | inconclusive: 150 µM | 
N#Cc1cscn1 |  | inactive
ClC(c1ccccc1)(c1ccccc1)c1ccccc1 | inconclusive: 3.98 µM | 
C=C(C)C(=O)OCC1CCCO1 (configuration not stated) |  | inactive
CC(O)CN(CCN(CC(C)O)CC(C)O)CC(C)O (configuration not stated) | inconclusive: 100 µM | 
CC1CCC(C(=O)O)CC1 (configuration not stated) |  | inactive
CC(=O)C(C)O (configuration not stated) |  | inactive
Cc1c(Cl)cccc1Cl | inconclusive: 100 µM | 
COCCc1ccc(OCC(O)CNC(C)C)cc1 (configuration not stated) | inconclusive: 0.41 µM | 
O=C(O)c1snc(Cl)c1Cl |  | inactive
CC(C)CCOC(=O)c1ccccc1 | inconclusive: 100 µM | 
C=C1CC[C@H](O)C/C1=C/C=C1\CCC[C@]2(C)[C@@H]([C@H](C)/C=C/[C@H](C)C(C)C)CC[C@@H]12 | inconclusive: 100 µM | 
Cc1ccc(Nc2ccc(O)c3c2C(=O)c2ccccc2C3=O)cc1 | inconclusive: 0.18 µM | 
CC1=NN(c2ccc(S(=O)(=O)O)cc2)C(=O)C1 | inconclusive: 100 µM | 
C=C(C)C(=O)OCc1ccccc1 |  | inactive
CCCCCCCCCC/C=C/C1CC(=O)OC1=O (configuration not stated) | inconclusive: 49.1 µM | 

Tested on: not listed separately
Experiment: ATG_M_06_TRANS: Attagene TRANS-FACTORIAL HepG2 Assay for M06 Transcription Factor (Internal Marker) (AID 2282983);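 as to AC50: potency for rise in reporter mRNA above DMSO baseline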
Settings: HepG2 Attagene TRANS M06 internal marker reporter
In short: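 Background-control reporter readout: after 24 h chemical exposure of transiently transfected HepG2 (GAL4-UAS reporter units), mRNA quantified by RT-PCR with fluorescent labeling and capillary electrophoresis. Gain-of-signal fitting against DMSO baseline.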

Compound | outcome | AC50
CCCCCCCCCC(=O)OCC | inactive | 
CSc1ccc(O)cc1C |  | inconclusive: 100 µM
CC(C)=CCC/C(C)=C/COC=O | inactive | 
CC1CCC(C(=O)O)CC1 (configuration not stated) |  | inconclusive: 103 µM
CCCCCCCCc1ccc(S(=O)(=O)O)cc1 |  | inconclusive: 0.0782 µM
O=C(O)c1snc(Cl)c1Cl | inactive | 
CC(C)CCOC(=O)c1ccccc1 |  | inconclusive: 100 µM
O=C(O)c1ccc(C(=O)O)cc1 | inactive | 
CC1=NN(c2ccc(S(=O)(=O)O)cc2)C(=O)C1 |  | inconclusive: 100 µM

An excerpt of these results, field by field:
CC(C)=CCC/C(C)=C/COC=O
  outcome: inactive
CC1CCC(C(=O)O)CC1 (configuration not stated)
  AC50: inconclusive: 103 µM

Tested on: not listed separately
Experiment: ATG_M_32_TRANS: Attagene TRANS-FACTORIAL HepG2 Assay for M32 Transcription Factor (Internal Marker) (AID 2282984);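 as to outcome: transcript level of a background control reporter unit measured by RT-PCR and capillary electrophoresis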
Settings: HepG2 Attagene TRANS M32 internal marker reporter
In short: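 Internal-marker readout from a multiplexed transcription reporter panel. HepG2 cells were transfected with GAL4-UAS reporter units, treated 24 hours, and reporter transcript levels determined by fluorescence after RT-PCR and capillary separation.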

Compound | AC50 | outcome
CCCCCCCCCC(=O)OCC | inconclusive: 166 µM | 
CSc1ccc(O)cc1C | inconclusive: 100 µM | 
CC(C)=CCC/C(C)=C/COC=O |  | inactive
CCC1(c2ccccc2)C(=O)NCNC1=O |  | inactive
O=CC(F)(F)C(F)(F)C(F)(F)C(F)F |  | inactive
N#Cc1cscn1 | inconclusive: 100 µM | 
CC(O)CN(CCN(CC(C)O)CC(C)O)CC(C)O (configuration not stated) | inconclusive: 26.9 µM | 
CC1=NN(c2ccc(S(=O)(=O)O)cc2)C(=O)C1 |  | inactive
NC(=O)C(F)(F)C(F)(F)C(F)(F)C(F)(F)C(N)=O | inconclusive: 29.8 µM | 

Target: Nuclear receptor subfamily 4 group A member 2 (Homo sapiens) (UniProt P43354)
Experiment: ATG_NURR1_TRANS: Attagene TRANS-FACTORIAL HepG2 Assay for human Nuclear Receptor Related Protein 1 (NURR1) (AID 2282985)
Settings: HepG2 Attagene TRANS reporter, mRNA readout
In short: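 Endpoint: reporter mRNA increase relative to DMSO. HepG2 cells transfected with reporter units, treated 24 h; RNA processed by RT-PCR, labelling, HpaI digestion and capillary electrophoresis.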

Compound | AC50 | outcome
O=C=NC1CCC(CC2CCC(N=C=O)CC2)CC1 (configuration not stated) | inconclusive: 23.3 µM | 
CCCCCCCCCC(=O)OCC |  | inactive
CSc1ccc(O)cc1C | inconclusive: 100 µM | 
CC(C)=CCC/C(C)=C/COC=O |  | inactive
CCOC(=S)SSC(=S)OCC | inconclusive: 0.0823 µM | 
CC(=O)c1ccccc1 | inconclusive: 19.8 µM | 
C=C1CC/C=C(\C)CC[C@@H]2[C@@H]1CC2(C)C |  | inactive
CCC1(c2ccccc2)C(=O)NCNC1=O | inconclusive: 100 µM | 
ClC(c1ccccc1)(c1ccccc1)c1ccccc1 |  | inactive
C=C(C)C(=O)OCC1CCCO1 (configuration not stated) | inconclusive: 32.2 µM | 
CC1CCC(C(=O)O)CC1 (configuration not stated) | inconclusive: 103 µM | 
CCCCCCCCc1ccc(S(=O)(=O)O)cc1 |  | inactive
Cc1c(Cl)cccc1Cl | inconclusive: 100 µM | 
COCCc1ccc(OCC(O)CNC(C)C)cc1 (configuration not stated) | inconclusive: 100 µM | 
O=C(O)c1snc(Cl)c1Cl | inconclusive: 100 µM | 
CC(C)CCOC(=O)c1ccccc1 | inconclusive: 100 µM | 
C=C1CC[C@H](O)C/C1=C/C=C1\CCC[C@]2(C)[C@@H]([C@H](C)/C=C/[C@H](C)C(C)C)CC[C@@H]12 | inconclusive: 100 µM | 
Cc1ccc(Nc2ccc(O)c3c2C(=O)c2ccccc2C3=O)cc1 | inconclusive: 44.4 µM | 
CC1=NN(c2ccc(S(=O)(=O)O)cc2)C(=O)C1 | inconclusive: 100 µM | 
NC(=O)C(F)(F)C(F)(F)C(F)(F)C(F)(F)C(N)=O | inconclusive: 150 µM | 
C=C(C)C(=O)OCc1ccccc1 |  | inactive
CCCCCCCCCC/C=C/C1CC(=O)OC1=O (configuration not stated) |  | inactive
